Test results taken from doi:10.1101/639948.
Results are given in words; binding and its absence hold for the method and conditions named. In cells and extracts the contact can be indirect. Some results given as binding are weak or reduced against the parent protein; the word gives no strength.

Amino acid sequences for entries named in this document (tags omitted).
UniProt Q8IXI2: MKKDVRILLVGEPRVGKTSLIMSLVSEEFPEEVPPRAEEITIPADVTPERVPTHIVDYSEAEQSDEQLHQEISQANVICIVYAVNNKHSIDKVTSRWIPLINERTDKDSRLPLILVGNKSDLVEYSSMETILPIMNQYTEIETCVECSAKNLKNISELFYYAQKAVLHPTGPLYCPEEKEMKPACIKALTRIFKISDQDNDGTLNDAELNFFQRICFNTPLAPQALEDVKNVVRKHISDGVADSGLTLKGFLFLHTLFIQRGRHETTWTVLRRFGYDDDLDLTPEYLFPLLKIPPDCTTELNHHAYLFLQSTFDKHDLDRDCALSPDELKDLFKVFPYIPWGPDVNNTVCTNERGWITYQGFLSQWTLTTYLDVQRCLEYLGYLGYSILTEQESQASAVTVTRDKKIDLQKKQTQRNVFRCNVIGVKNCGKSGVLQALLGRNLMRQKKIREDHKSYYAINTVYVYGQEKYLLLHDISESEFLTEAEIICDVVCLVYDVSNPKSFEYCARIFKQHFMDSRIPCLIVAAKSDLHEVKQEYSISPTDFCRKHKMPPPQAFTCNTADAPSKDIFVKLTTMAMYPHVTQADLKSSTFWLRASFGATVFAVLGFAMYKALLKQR
UniProt Q8IXI1: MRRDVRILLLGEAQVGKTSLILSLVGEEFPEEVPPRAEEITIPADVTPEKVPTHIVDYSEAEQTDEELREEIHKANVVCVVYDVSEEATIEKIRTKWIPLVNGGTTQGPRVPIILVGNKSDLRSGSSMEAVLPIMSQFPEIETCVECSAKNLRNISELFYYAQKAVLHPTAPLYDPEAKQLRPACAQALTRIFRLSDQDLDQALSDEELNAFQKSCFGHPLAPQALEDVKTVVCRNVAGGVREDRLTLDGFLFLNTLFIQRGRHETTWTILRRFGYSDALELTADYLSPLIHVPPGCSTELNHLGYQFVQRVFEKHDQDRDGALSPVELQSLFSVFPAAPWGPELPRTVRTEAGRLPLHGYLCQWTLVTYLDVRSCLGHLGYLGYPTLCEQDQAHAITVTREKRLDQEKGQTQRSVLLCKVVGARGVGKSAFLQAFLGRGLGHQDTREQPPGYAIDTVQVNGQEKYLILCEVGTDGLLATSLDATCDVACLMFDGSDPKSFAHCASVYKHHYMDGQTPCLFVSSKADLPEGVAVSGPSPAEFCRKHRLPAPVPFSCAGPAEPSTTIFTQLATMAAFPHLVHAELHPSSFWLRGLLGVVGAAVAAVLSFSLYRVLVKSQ
UniProt Q8JZN7: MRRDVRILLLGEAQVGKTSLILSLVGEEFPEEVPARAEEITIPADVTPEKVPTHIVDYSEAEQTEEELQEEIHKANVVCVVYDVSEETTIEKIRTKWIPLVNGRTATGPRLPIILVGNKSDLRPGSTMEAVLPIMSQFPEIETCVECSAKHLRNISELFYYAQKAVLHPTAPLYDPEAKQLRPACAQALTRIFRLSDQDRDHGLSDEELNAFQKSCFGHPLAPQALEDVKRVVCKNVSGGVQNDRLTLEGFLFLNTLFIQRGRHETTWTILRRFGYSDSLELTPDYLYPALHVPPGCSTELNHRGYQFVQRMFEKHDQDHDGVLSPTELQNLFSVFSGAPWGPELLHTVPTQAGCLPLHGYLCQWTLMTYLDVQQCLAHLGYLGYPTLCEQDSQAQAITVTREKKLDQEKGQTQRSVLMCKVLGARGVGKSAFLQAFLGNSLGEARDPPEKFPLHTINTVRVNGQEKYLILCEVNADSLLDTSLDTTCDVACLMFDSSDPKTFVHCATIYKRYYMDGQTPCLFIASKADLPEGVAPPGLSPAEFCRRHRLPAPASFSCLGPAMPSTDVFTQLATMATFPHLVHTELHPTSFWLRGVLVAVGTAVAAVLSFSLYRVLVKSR

What was measured:
Assay in all cases: co-IP
[1] = target: GFPMiro1 (UniProt Q8IXI2)
[2] = target: GFPMiro2 (UniProt Q8IXI1)
[3] = target: T1, Mic19/CHCHD3 (mouse (endogenous in MEF)) (UniProt Q9CRB9)
T1 sequence: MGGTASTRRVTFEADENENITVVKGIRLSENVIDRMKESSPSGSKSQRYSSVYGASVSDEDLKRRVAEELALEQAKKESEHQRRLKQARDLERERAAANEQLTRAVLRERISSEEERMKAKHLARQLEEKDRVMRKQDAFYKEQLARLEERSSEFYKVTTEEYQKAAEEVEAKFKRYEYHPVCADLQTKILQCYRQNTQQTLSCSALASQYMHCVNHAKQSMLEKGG

[4] = target: Miro2 (mouse (endogenous in brain and MEF)) (UniProt Q8JZN7)
[5] = target: GFPMiro1, Q8IXI2; details: remark: other sources report otherwise
[6] = target: GFPMiro2, Q8IXI1; details: remark: other sources report otherwise
[7] = target: T2, Sam50 (mouse (endogenous in brain and MEF)) (UniProt Q8BGH2)
T2 sequence: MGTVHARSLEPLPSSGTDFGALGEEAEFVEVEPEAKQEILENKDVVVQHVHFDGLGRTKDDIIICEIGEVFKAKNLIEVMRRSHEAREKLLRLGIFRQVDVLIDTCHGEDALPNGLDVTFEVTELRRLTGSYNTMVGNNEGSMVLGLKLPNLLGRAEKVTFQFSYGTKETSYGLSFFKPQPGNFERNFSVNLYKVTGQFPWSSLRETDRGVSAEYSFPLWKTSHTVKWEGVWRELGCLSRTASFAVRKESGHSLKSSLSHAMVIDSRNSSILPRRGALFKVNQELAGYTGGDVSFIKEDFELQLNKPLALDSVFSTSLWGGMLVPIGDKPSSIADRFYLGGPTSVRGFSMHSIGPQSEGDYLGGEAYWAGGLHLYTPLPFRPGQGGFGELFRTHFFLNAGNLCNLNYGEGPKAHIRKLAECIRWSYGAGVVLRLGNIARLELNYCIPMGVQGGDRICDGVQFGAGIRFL

B1: Sam50 (protein, UniProt Q9Y512 1-469)
chain: MGTVHARSLEPLPSSGPDFGGLGEEAEFVEVEPEAKQEILENKDVVVQHVHFDGLGRTKDDIIICEIGDVFKAKNLIEVMRKSHEAREKLLRLGIFRQVDVLIDTCQGDDALPNGLDVTFEVTELRRLTGSYNTMVGNNEGSMVLGLKLPNLLGRAEKVTFQFSYGTKETSYGLSFFKPRPGNFERNFSVNLYKVTGQFPWSSLRETDRGMSAEYSFPIWKTSHTVKWEGVWRELGCLSRTASFAVRKESGHSLKSSLSHAMVIDSRNSSILPRRGALLKVNQELAGYTGGDVSFIKEDFELQLNKQLIFDSVFSASFWGGMLVPIGDKPSSIADRFYLGGPTSIRGFSMHSIGPQSEGDYLGGEAYWAGGLHLYTPLPFRPGQGGFGELFRTHFFLNAGNLCNLNYGEGPKAHIRKLAECIRWSYGAGIVLRLGNIARLELNYCVPMGVQTGDRICDGVQFGAGIRFL
[1]
  binding: binds
[2]
  binding: binds

B2: Sam50 (protein, UniProt Q8BGH2 1-469)
chain: MGTVHARSLEPLPSSGTDFGALGEEAEFVEVEPEAKQEILENKDVVVQHVHFDGLGRTKDDIIICEIGEVFKAKNLIEVMRRSHEAREKLLRLGIFRQVDVLIDTCHGEDALPNGLDVTFEVTELRRLTGSYNTMVGNNEGSMVLGLKLPNLLGRAEKVTFQFSYGTKETSYGLSFFKPQPGNFERNFSVNLYKVTGQFPWSSLRETDRGVSAEYSFPLWKTSHTVKWEGVWRELGCLSRTASFAVRKESGHSLKSSLSHAMVIDSRNSSILPRRGALFKVNQELAGYTGGDVSFIKEDFELQLNKPLALDSVFSTSLWGGMLVPIGDKPSSIADRFYLGGPTSVRGFSMHSIGPQSEGDYLGGEAYWAGGLHLYTPLPFRPGQGGFGELFRTHFFLNAGNLCNLNYGEGPKAHIRKLAECIRWSYGAGVVLRLGNIARLELNYCIPMGVQGGDRICDGVQFGAGIRFL
[3]
  binding: binds
[4]
  binding: binds

B3: Mtx1, Q13505 1-466 (protein)
chain: MLLGGPPRSPRSGTSPKGPWSSTGHVQFGKSPQTWPRRTRPRSPEPAAPSGVRGSTWTRRRDSPRRAGPTALSRYVGHLWMGRRPPSPEARGPVPRSSAASRARRSLASPGISPGPLTATIGGAVAGGGPRQGRAEAHKEVFPGQRVGKMAAPMELFCWSGGWGLPSVDLDSLAVLTYARFTGAPLKVHKISNPWQSPSGTLPALRTSHGEVISVPHKIITHLRKEKYNADYDLSARQGADTLAFMSLLEEKLLPVLVHTFWIDTKNYVEVTRKWYAEAMPFPLNFFLPGRMQRQYMERLQLLTGEHRPEDEEELEKELYREARECLTLLSQRLGSQKFFFGDAPASLDAFVFSYLALLLQAKLPSGKLQVHLRGLHNLCAYCTHILSLYFPWDGAEVPPQRQTPAGPETEEEPYRRRNQILSVLAGLAAMVGYALLSGIVSIQRATPARAPGTRTLGMAEEDEEE
[5]
  binding: no binding
[6]
  binding: no binding

B4: Mic19/CHCHD3 (protein, UniProt Q9CRB9 1-227)
chain: MGGTASTRRVTFEADENENITVVKGIRLSENVIDRMKESSPSGSKSQRYSSVYGASVSDEDLKRRVAEELALEQAKKESEHQRRLKQARDLERERAAANEQLTRAVLRERISSEEERMKAKHLARQLEEKDRVMRKQDAFYKEQLARLEERSSEFYKVTTEEYQKAAEEVEAKFKRYEYHPVCADLQTKILQCYRQNTQQTLSCSALASQYMHCVNHAKQSMLEKGG
[7]
  binding: binds
